Consider two compounds from patent US11865176B2, “Compositions and methods of modulating anti-tumor immunity” (Dana-Farber Cancer Institute, Inc., priority 2016, dated 2024).

The experiment concerns PD-1-overexpressing Jurkat cells. Nature of the experiment: Small molecule screen: IL2 secretion (AlphaLISA) from stimulated PD-1-overexpressing Jurkat cells. The conditions noted are these: 3.3 μM compound; for Zscore_1 / Zscore_2: IL2 level, α-CD3/α-CD28/α-PD-1 beads; for Zscore_1: replicate 1; for Zscore_2: replicate 2; for Zscore_AVG: average of replicate Z scores. It is filed as cell-based, human. As for the experimental part: PD-1-overexpressing Jurkat cells were plated at a concentration of 100,000 cells/well in a total volume of 80 μl. […] Dynabeads conjugated to α-CD3, α-CD28, and α-PD-1 antibodies were added in 20 for a final assay volume of 100 with a final compound concentration of 3.3 μM and an 8:1 bead:cell ratio. Beads were conjugated to α-CD3/α-CD28/control IgG and added to wells containing DMSO-treated cells as a positive control, while beads conjugated to α-CD3/α-CD28/α-PD1 were added to wells containing DMSO-treated cells as a negative control. Supernatants from each well were analyzed for IL2 levels by AlphaLISA (Perkin Elmers) according to the manufacturer's protocol. Average and standard deviation values were calculated from the PD-1 controls (DMSO-treated cells stimulated with α-CD3/α-CD28/α-PD-1 beads); hits were defined as compounds scoring at least 3 standard deviations from the mean of the controls.
In addition to known negative regulators of IL-2 production (e.g. glycogen synthase kinase-3α/β (GSK3α/β) (24,25)), this screen identified cyclin-dependent kinases 4 and 6 inhibitors (CDK4/6i) as top hits (Table 1).
A general note: Alpha assays give light when donor and acceptor beads are brought close together.

SMILES strings stand for the structures.

`O=C1Nc2ccc(-c3cccnc3)cc2/C1=C/c1ccc[nH]1` [JAK3 Inhibitor VI] came in with a Zscore_1 of 8.226, a Zscore_2 of 11.47 and a Zscore_AVG of 9.846.

The compound `O.O=C1NC(=O)c2c1c(-c1ccccc1)cc1[nH]c3ccc(O)cc3c21` [Wee1/Chk1 Inhibitor] gave a Zscore_1 of −0.1239, a Zscore_2 of −2.252 and a Zscore_AVG of −1.188.
